# Experimental data from the supplement of paper PMC10849652.
# Sequences of proteins named here, by UniProt entry; tags and fusion partners are left off. A change or cut given only in a name is not applied to a line headed by its entry.
# UniProt Q8IWV2: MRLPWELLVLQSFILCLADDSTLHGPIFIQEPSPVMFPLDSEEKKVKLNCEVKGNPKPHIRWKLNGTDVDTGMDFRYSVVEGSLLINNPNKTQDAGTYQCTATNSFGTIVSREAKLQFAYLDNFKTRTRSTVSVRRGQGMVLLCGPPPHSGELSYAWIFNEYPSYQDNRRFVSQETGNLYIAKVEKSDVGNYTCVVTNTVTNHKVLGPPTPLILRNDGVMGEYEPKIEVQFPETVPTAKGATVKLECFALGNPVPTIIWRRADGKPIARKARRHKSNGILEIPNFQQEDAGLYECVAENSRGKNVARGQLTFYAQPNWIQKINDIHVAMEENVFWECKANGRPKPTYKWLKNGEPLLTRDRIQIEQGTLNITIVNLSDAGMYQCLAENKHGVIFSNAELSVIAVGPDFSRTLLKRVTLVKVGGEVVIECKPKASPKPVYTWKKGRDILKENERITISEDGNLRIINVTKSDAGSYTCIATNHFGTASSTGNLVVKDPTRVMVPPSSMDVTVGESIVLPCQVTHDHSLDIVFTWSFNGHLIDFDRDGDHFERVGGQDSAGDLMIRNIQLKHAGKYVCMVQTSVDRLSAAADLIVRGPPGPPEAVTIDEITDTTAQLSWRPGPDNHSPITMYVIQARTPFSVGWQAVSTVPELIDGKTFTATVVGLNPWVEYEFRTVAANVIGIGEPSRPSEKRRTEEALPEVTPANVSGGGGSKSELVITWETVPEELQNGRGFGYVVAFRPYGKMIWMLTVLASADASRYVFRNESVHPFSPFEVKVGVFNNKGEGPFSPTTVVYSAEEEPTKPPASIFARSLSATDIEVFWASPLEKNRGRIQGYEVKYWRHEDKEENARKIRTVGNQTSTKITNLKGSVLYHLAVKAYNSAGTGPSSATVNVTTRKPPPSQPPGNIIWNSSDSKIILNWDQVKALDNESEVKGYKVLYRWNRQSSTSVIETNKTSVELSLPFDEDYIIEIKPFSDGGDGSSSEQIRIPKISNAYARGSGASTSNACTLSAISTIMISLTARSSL
# UniProt Q9UIV1, whole entry, looked up: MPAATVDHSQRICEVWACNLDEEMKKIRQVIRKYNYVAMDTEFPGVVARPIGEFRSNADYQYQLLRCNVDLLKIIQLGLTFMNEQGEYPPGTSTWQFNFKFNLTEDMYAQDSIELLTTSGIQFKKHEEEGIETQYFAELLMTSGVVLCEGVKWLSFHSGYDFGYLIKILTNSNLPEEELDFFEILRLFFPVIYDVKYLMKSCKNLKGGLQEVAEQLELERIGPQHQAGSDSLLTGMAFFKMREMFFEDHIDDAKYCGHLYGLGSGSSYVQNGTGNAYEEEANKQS
# UniProt Q9ULV3: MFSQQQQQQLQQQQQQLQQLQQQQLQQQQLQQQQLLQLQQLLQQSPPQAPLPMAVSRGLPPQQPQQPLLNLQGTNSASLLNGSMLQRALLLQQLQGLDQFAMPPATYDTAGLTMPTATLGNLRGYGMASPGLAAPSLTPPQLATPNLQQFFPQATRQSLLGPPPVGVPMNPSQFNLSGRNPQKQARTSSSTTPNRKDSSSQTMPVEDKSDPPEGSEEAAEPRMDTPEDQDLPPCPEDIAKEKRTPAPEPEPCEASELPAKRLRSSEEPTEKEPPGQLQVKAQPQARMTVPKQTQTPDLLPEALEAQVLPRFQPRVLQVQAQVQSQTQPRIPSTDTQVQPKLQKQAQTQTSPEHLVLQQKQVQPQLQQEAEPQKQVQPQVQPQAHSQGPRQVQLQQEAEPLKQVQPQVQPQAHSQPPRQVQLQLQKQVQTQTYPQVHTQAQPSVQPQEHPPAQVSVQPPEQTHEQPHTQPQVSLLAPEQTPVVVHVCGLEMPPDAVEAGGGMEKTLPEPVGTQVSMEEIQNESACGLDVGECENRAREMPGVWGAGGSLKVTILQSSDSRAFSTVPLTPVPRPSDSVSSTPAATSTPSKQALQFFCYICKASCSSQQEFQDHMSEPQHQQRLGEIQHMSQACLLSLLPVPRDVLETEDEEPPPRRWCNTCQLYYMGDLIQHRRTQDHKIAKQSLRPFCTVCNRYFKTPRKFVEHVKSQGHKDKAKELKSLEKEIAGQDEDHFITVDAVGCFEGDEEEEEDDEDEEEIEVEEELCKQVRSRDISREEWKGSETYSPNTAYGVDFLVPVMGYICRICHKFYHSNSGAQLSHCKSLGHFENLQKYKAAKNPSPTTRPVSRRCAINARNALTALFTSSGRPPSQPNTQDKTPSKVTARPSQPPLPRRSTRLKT
# UniProt O14967: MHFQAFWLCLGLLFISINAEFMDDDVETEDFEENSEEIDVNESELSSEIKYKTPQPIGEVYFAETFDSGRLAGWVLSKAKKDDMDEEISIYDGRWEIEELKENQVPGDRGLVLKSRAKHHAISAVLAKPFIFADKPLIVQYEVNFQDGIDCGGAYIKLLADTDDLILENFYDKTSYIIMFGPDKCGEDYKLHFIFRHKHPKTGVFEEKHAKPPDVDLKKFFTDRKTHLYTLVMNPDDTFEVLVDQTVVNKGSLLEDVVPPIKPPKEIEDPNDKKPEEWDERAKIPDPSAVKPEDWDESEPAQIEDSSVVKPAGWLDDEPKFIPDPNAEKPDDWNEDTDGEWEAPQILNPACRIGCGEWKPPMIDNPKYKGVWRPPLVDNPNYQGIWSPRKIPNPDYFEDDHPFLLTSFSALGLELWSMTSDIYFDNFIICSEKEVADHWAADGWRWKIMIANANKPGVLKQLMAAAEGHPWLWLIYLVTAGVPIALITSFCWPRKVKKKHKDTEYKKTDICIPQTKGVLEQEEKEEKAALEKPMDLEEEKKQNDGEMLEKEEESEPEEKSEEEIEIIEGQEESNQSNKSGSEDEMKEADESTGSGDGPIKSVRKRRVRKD
# UniProt Q9UHD1: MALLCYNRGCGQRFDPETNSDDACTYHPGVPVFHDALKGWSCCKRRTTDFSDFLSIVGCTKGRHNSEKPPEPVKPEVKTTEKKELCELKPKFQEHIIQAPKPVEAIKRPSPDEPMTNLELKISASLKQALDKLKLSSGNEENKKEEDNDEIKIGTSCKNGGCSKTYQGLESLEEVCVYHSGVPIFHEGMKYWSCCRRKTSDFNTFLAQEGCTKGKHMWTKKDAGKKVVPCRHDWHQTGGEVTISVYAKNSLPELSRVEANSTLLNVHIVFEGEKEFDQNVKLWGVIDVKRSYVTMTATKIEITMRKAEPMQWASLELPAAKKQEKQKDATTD
# UniProt Q9NRP2: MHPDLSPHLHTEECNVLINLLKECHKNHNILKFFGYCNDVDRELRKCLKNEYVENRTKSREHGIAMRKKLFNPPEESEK
# UniProt Q99653: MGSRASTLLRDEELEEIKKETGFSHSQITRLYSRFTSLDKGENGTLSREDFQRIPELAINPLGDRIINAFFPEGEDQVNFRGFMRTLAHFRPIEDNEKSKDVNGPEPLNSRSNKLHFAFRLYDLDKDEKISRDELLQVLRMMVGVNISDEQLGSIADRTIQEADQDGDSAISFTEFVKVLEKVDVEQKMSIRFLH
# UniProt P54105: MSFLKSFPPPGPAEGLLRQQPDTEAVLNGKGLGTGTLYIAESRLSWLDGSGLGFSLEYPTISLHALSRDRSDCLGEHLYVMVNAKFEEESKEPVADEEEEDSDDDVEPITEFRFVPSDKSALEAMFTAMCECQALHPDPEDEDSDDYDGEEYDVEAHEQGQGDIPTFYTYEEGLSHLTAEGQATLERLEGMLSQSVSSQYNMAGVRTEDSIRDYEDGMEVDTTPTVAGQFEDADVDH
# UniProt Q96S66: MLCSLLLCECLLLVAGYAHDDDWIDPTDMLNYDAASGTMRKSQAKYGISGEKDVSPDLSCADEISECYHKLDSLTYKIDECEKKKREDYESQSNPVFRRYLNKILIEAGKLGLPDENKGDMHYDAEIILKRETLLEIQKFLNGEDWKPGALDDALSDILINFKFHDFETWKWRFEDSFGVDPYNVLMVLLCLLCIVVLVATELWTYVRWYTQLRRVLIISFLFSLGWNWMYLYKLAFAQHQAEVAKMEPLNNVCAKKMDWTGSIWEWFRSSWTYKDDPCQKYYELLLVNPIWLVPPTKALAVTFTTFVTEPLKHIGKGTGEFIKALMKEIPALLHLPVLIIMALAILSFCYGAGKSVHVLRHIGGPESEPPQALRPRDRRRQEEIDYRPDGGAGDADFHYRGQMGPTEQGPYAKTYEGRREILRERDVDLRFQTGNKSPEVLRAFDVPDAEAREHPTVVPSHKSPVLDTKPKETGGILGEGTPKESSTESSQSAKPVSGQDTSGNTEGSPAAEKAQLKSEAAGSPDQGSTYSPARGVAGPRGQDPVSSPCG
# UniProt Q96DG6: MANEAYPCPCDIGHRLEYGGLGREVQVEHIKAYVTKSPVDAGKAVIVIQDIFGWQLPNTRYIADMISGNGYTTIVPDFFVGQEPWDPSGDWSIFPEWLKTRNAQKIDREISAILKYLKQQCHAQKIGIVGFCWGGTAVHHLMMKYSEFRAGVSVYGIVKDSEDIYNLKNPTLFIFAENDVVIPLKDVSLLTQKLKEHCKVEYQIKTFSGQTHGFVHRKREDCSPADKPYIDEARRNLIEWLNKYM
# UniProt Q99439: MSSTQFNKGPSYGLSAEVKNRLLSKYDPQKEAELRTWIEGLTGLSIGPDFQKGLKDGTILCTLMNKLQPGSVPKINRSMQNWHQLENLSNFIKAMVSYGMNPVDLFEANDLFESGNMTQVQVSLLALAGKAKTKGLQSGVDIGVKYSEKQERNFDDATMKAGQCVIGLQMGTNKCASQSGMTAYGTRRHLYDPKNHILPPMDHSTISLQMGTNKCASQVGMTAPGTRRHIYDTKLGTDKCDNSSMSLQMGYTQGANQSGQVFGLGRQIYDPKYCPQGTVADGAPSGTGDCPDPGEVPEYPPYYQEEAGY
# UniProt Q9H6Q4: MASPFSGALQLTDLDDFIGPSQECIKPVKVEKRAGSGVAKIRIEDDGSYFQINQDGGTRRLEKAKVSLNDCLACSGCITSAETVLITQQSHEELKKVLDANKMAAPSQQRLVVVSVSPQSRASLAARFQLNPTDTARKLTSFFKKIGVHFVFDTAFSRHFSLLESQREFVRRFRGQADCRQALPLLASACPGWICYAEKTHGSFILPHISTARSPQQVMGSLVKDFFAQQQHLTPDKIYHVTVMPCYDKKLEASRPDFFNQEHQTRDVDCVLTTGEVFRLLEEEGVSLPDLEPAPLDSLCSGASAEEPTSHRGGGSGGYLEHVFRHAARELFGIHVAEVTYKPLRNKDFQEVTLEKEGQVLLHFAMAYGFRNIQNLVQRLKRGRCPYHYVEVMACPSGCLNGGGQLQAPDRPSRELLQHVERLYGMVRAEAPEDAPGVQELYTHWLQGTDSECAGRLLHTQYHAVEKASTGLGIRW
# UniProt Q9C0A0: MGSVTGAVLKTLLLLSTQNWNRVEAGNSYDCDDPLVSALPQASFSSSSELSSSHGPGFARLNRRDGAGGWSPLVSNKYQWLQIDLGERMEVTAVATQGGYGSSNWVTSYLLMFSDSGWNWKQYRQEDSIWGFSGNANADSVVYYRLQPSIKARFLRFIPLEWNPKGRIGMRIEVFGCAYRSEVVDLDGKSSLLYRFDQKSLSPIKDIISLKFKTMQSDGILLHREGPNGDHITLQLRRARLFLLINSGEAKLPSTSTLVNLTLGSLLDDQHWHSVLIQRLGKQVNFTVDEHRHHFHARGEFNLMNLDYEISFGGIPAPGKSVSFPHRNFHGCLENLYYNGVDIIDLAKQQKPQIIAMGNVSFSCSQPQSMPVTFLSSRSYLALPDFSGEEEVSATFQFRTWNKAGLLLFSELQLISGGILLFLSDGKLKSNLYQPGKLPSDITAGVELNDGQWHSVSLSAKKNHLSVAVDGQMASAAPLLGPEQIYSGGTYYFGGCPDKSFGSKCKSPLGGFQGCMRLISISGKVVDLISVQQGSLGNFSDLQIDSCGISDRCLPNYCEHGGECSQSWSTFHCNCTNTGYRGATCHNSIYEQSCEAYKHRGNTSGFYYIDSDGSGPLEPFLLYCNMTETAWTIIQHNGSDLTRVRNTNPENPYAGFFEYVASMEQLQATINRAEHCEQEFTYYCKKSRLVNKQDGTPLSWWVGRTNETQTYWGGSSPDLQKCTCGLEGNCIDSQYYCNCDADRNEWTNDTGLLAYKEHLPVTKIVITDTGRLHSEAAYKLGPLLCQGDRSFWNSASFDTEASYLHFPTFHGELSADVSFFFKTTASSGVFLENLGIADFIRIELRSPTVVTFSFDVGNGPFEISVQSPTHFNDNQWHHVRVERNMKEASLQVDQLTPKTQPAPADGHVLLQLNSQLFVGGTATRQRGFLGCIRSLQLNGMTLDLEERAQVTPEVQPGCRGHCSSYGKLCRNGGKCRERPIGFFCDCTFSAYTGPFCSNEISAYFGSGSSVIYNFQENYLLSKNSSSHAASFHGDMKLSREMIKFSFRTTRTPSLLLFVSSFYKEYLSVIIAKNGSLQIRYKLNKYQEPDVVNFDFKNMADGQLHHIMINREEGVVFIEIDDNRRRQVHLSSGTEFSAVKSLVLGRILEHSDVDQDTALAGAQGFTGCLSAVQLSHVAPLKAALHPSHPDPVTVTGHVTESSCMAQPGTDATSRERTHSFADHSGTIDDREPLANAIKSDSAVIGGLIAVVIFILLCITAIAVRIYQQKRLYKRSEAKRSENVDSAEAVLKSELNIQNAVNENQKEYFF
# Some of the results follow.
# Compound: Cc1ccc(NC(=O)c2ccc(CN3CC[C@H](N(C)C)C3)c(C(F)(F)F)c2)cc1Nc1nccc(-c2cncnc2)n1 [bafetinib]
# Test: log2 fold change, soluble protein after heating vs DMSO (PISA); higher = thermal stabilisation; K562 cells, 10 uM, 30 min; active = over 0.2 and 3.5 SD of the protein, either way, in both replicates (recomputed)
# In short: (§1)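 K562 cells at 2×10^6 cells/mL were treated with 10 μM compound for 30 min. Aliquots were heated for 3 min across 48°C-58°C, pooled, and extracted in PBS with 0.5% NP-40 at 4°C; soluble protein was the supernatant after 21,000xg for 90 min. Soluble protein was quantified by TMTpro 16plex LC-MS/MS with channel sums equalised, and reported as log2 fold change in thermal stability against DMSO controls, with values from duplicates.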
row,Target,log2 fold change
1,CNTN4 (UniProt Q8IWV2),inactive: -0.109
2,CLPTM1L (UniProt Q96KA5),inactive: -0.186
3,COA7 (UniProt Q96BR5),inactive: -0.013
4,CLIP1 isoform 1 (UniProt P30622),inactive: -0.061
5,CNNM3 (UniProt Q8NE01),inactive: -0.045
6,CNOT7 (UniProt Q9UIV1),inactive: 0.059
7,CIZ1 (UniProt Q9ULV3),inactive: -0.063
8,CLGN (UniProt O14967),inactive: -0.052
9,CHORDC1 (UniProt Q9UHD1),inactive: 0.045
10,CMC2 (UniProt Q9NRP2),inactive: -0.107
11,CLN8 (UniProt Q9UBY8),inactive: -0.209
12,CHP1 (UniProt Q99653),inactive: 0
13,CKAP5 (UniProt Q14008),inactive: 0.081
14,CLTB (UniProt P09497),inactive: 0.095
15,CLIP4 (UniProt Q8N3C7),inactive: -0.04
16,CLNS1A (UniProt P54105),inactive: -0.015

row,Target,log2 fold change
1,CLCC1 (UniProt Q96S66),inactive: -0.034
2,COL1A2 (UniProt P08123),inactive: -0.141
3,CLPP (UniProt Q16740),inactive: 0.025
4,"CLUH, A0A494C0R8",inactive: 0.016
5,CLIC2 (UniProt O15247),inactive: 0.016
6,CNOT2 (UniProt Q9NZN8),inactive: -0.002
7,CMBL (UniProt Q96DG6),inactive: -0.021
8,CLIC4 (UniProt Q9Y696),inactive: -0.054
9,CINP isoform 3 (UniProt Q9BW66),inactive: -0.036
10,CLIC1 (UniProt O00299),inactive: -0.037
11,CNDP2 (UniProt Q96KP4),inactive: -0.03
12,CNN2 (UniProt Q99439),inactive: -0.001
13,CHPF2 (UniProt Q9P2E5),inactive: -0.19
14,CIAO3 (UniProt Q9H6Q4),inactive: -0.059
15,CLCN7 (UniProt P51798),inactive: -0.24
16,CNTNAP4 (UniProt Q9C0A0),inactive: 0.291

# Compound: Cc1cccc(CC(=O)N2CCc3c2ccc(-c2cn(C)c4ncnc(N)c24)c3F)n1
# Test: as above
# In short: as §1
row,Target,log2 fold change
1,CNTN4 (UniProt Q8IWV2),inactive: 0.008
2,CLPTM1L (UniProt Q96KA5),inactive: 0.07
3,COA7 (UniProt Q96BR5),inactive: -0.001
4,CLIP1 isoform 1 (UniProt P30622),inactive: -0.035
5,CNNM3 (UniProt Q8NE01),inactive: -0.064
6,CNOT7 (UniProt Q9UIV1),inactive: -0.037
7,CIZ1 (UniProt Q9ULV3),inactive: 0.013
8,CLGN (UniProt O14967),inactive: 0.007
9,CHORDC1 (UniProt Q9UHD1),inactive: 0.019
10,CMC2 (UniProt Q9NRP2),inactive: -0.005
11,CLN8 (UniProt Q9UBY8),active: -0.662
12,CHP1 (UniProt Q99653),inactive: -0.087
13,CKAP5 (UniProt Q14008),inactive: 0.106
14,CLTB (UniProt P09497),inactive: 0.002
15,CLIP4 (UniProt Q8N3C7),inactive: -0.014
16,CLNS1A (UniProt P54105),inactive: -0.043

row,Target,log2 fold change
1,CLCC1 (UniProt Q96S66),inactive: -0.039
2,COL1A2 (UniProt P08123),inactive: -0.027
3,CLPP (UniProt Q16740),inactive: -0.045
4,"CLUH, A0A494C0R8",inactive: -0.445
5,CLIC2 (UniProt O15247),inactive: 0.009
6,CNOT2 (UniProt Q9NZN8),inactive: 0
7,CMBL (UniProt Q96DG6),inactive: -0.093
8,CLIC4 (UniProt Q9Y696),inactive: -0.004
9,CINP isoform 3 (UniProt Q9BW66),inactive: -0.058
10,CLIC1 (UniProt O00299),inactive: 0.016
11,CNDP2 (UniProt Q96KP4),inactive: 0.006
12,CNN2 (UniProt Q99439),inactive: 0.052
13,CHPF2 (UniProt Q9P2E5),inactive: -0.005
14,CIAO3 (UniProt Q9H6Q4),inactive: 0.018
15,CLCN7 (UniProt P51798),inactive: 0.083
16,CNTNAP4 (UniProt Q9C0A0),inactive: 0.003

# Compound: Cc1cn(-c2cc(NC(=O)c3ccc(C)c(Nc4nccc(-c5cccnc5)n4)c3)cc(C(F)(F)F)c2)cn1 [nilotinib]
# Test: as above
# In short: as §1
row,Target,log2 fold change
1,CNTN4 (UniProt Q8IWV2),inactive: 0.06
2,CLPTM1L (UniProt Q96KA5),inactive: -0.103
3,COA7 (UniProt Q96BR5),inactive: -0.033
4,CLIP1 isoform 1 (UniProt P30622),inactive: 0.018
5,CNNM3 (UniProt Q8NE01),inactive: 0.006
6,CNOT7 (UniProt Q9UIV1),inactive: -0.077
7,CIZ1 (UniProt Q9ULV3),inactive: 0.016
8,CLGN (UniProt O14967),inactive: -0.073
9,CHORDC1 (UniProt Q9UHD1),inactive: 0.121
10,CMC2 (UniProt Q9NRP2),inactive: -0.04
11,CLN8 (UniProt Q9UBY8),inactive: 0.051
12,CHP1 (UniProt Q99653),inactive: 0.014
13,CKAP5 (UniProt Q14008),inactive: -0.073
14,CLTB (UniProt P09497),inactive: 0.077
15,CLIP4 (UniProt Q8N3C7),inactive: -0.025
16,CLNS1A (UniProt P54105),inactive: -0.001

row,Target,log2 fold change
1,CLCC1 (UniProt Q96S66),inactive: 0.023
2,COL1A2 (UniProt P08123),inactive: -0.046
3,CLPP (UniProt Q16740),inactive: 0.022
4,"CLUH, A0A494C0R8",inactive: 0.264
5,CLIC2 (UniProt O15247),inactive: -0.024
6,CNOT2 (UniProt Q9NZN8),inactive: 0.048
7,CMBL (UniProt Q96DG6),inactive: 0.021
8,CLIC4 (UniProt Q9Y696),inactive: -0.002
9,CINP isoform 3 (UniProt Q9BW66),inactive: -0.017
10,CLIC1 (UniProt O00299),inactive: 0.013
11,CNDP2 (UniProt Q96KP4),inactive: 0.045
12,CNN2 (UniProt Q99439),inactive: -0.075
13,CHPF2 (UniProt Q9P2E5),inactive: -0.017
14,CIAO3 (UniProt Q9H6Q4),inactive: -0.041
15,CLCN7 (UniProt P51798),inactive: -0.035
16,CNTNAP4 (UniProt Q9C0A0),inactive: -0.077
